# Assay results as given in the supplement of paper PMC8728848.
# This is one part of the list.
# B1: Adiponectin (Rattus norvegicus), Q8K3R4 (protein)
# chain: MLLLQALLFLLILPSHEGITATEGPGALVPPPKETCAGWMAGIPGYPGHNGIPGRDGRDGTPGEKGEKGDAGVLGPKGDPGDAGMTGAEGPRGFPGTPGRKGEPGEAAYMYHSAFSVGLETRVTVPNVPIRFTKIFYNQQNHYDGSTGKFHCNIPGLYYFSYHITVYMKDVKVSLFKKDKAVLFTYDQYQEKNVDQASGSMLLHLEVGDQVWLQVYGEGDNNGLYADNVNDSTFTGFLLYHDTN
# Columns and labels:
# Assay in all cases: glycan array binding signal (z-score within array); higher = stronger binding
# Details in all cases: glycan notation: IUPAC condensed, linker removed
# [1] = molecular target: Fuc(a1-2)Gal
# In short: (§1)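 The binding signal is a Z-score computed within each array and averaged over linkers. Arrays of the same protein sequence at different concentrations or buffers were also averaged together. Data originate from 3228 arrays in the Consortium for Functional Glycomics database, kept only where the protein sequence was available.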
# [2] = molecular target: Fuc(a1-2)Gal(b1-3)GalNAc
# In short: as §1
# [3] = molecular target: Fuc(a1-2)Gal(b1-3)GalNAc(b1-3)Gal
# In short: as §1
# [4] = molecular target: Fuc(a1-2)Gal(b1-3)GalNAc(b1-3)Gal(a1-4)Gal(b1-4)Glc
# In short: as §1
# [5] = molecular target: Fuc(a1-2)Gal(b1-3)GalNAc(b1-4)[Neu5Ac(a2-3)]Gal(b1-4)Glc
# In short: as §1
# [6] = molecular target: Fuc(a1-2)Gal(b1-3)GlcNAc
# In short: as §1
# [7] = molecular target: Fuc(a1-2)Gal(b1-3)GlcNAc(b1-2)Man(a1-3)[Fuc(a1-2)Gal(b1-3)GlcNAc(b1-2)Man(a1-6)]Man(b1-4)GlcNAc(b1-4)GlcNAc
# In short: as §1
# [8] = molecular target: Fuc(a1-2)Gal(b1-3)GlcNAc(b1-3)Gal(b1-4)Glc
# In short: as §1
# [9] = molecular target: Fuc(a1-2)Gal(b1-3)GlcNAc(b1-3)[Gal(b1-4)[Fuc(a1-3)]GlcNAc(b1-6)]Gal(b1-4)Glc
# In short: as §1
# [10] = molecular target: Fuc(a1-2)Gal(b1-3)[Fuc(a1-4)]GlcNAc
# In short: as §1
# [11] = molecular target: Fuc(a1-2)Gal(b1-3)[Fuc(a1-4)]GlcNAc(b1-2)Man(a1-3)[Fuc(a1-2)Gal(b1-3)[Fuc(a1-4)]GlcNAc(b1-2)Man(a1-6)]Man(b1-4)GlcNAc(b1-4)GlcNAc
# In short: as §1
# [12] = molecular target: Fuc(a1-2)Gal(b1-4)Glc
# In short: as §1
# [13] = molecular target: Fuc(a1-2)Gal(b1-4)Glc6S
# In short: as §1
# [14] = molecular target: Fuc(a1-2)Gal(b1-4)GlcNAc
# In short: as §1
# [15] = molecular target: Fuc(a1-2)Gal(b1-4)GlcNAc(b1-2)Man(a1-3)[Fuc(a1-2)Gal(b1-4)GlcNAc(b1-2)Man(a1-6)]Man(b1-4)GlcNAc(b1-4)GlcNAc
# In short: as §1
# [16] = molecular target: Fuc(a1-2)Gal(b1-4)GlcNAc(b1-3)Gal(b1-4)GlcNAc
# In short: as §1
# [17] = molecular target: Fuc(a1-2)Gal(b1-4)GlcNAc(b1-3)Gal(b1-4)GlcNAc(b1-3)Gal(b1-4)GlcNAc
# In short: as §1
# [18] = molecular target: Fuc(a1-2)Gal(b1-4)GlcNAc6S
# In short: as §1
# [19] = molecular target: Fuc(a1-2)Gal(b1-4)[Fuc(a1-3)]GlcNAc
# In short: as §1
# [20] = molecular target: Fuc(a1-2)Gal(b1-4)[Fuc(a1-3)]GlcNAc(b1-2)Man(a1-3)[Fuc(a1-2)Gal(b1-4)[Fuc(a1-3)]GlcNAc(b1-2)Man(a1-6)]Man(b1-4)GlcNAc(b1-4)GlcNAc
# In short: as §1
# [21] = molecular target: Fuc(a1-2)Gal(b1-4)[Fuc(a1-3)]GlcNAc(b1-3)Gal(b1-4)[Fuc(a1-3)]GlcNAc
# In short: as §1
# [22] = molecular target: Fuc(a1-2)Gal(b1-4)[Fuc(a1-3)]GlcNAc(b1-3)Gal(b1-4)[Fuc(a1-3)]GlcNAc(b1-3)Gal(b1-4)[Fuc(a1-3)]GlcNAc
# In short: as §1
# [23] = molecular target: Fuc(a1-2)Gal6S(b1-4)Glc
# In short: as §1
# [24] = molecular target: Fuc(a1-2)Gal6S(b1-4)Glc6S
# In short: as §1
# [25] = molecular target: Fuc(a1-2)Gal6S(b1-4)GlcNAc
# In short: as §1
# [26] = molecular target: Fuc(a1-2)[Gal(a1-3)]Gal
# In short: as §1
# [27] = molecular target: Fuc(a1-2)[Gal(a1-3)]Gal(b1-3)GlcNAc
# In short: as §1
# [28] = molecular target: Fuc(a1-2)[Gal(a1-3)]Gal(b1-3)GlcNAc(b1-2)Man(a1-3)[Fuc(a1-2)[Gal(a1-3)]Gal(b1-3)GlcNAc(b1-2)Man(a1-6)]Man(b1-4)GlcNAc(b1-4)GlcNAc
# In short: as §1
# [29] = molecular target: Fuc(a1-2)[Gal(a1-3)]Gal(b1-4)Glc
# In short: as §1
# [30] = molecular target: Fuc(a1-2)[Gal(a1-3)]Gal(b1-4)GlcNAc
# In short: as §1
# [31] = molecular target: Fuc(a1-2)[Gal(a1-3)]Gal(b1-4)GlcNAc(b1-2)Man(a1-3)[Fuc(a1-2)[Gal(a1-3)]Gal(b1-4)GlcNAc(b1-2)Man(a1-6)]Man(b1-4)GlcNAc(b1-4)GlcNAc
# In short: as §1
# [32] = molecular target: Fuc(a1-2)[Gal(a1-3)]Gal(b1-4)[Fuc(a1-3)]GlcNAc
# In short: as §1
# [33] = molecular target: Fuc(a1-2)[Gal(a1-4)]Gal(b1-4)GlcNAc
# In short: as §1
# [34] = molecular target: Fuc(a1-2)[GalNAc(a1-3)]Gal
# In short: as §1
# [35] = molecular target: Fuc(a1-2)[GalNAc(a1-3)]Gal(b1-3)GlcNAc
# In short: as §1
# [36] = molecular target: Fuc(a1-2)[GalNAc(a1-3)]Gal(b1-3)GlcNAc(b1-2)Man(a1-3)[Fuc(a1-2)[GalNAc(a1-3)]Gal(b1-3)GlcNAc(b1-2)Man(a1-6)]Man(b1-4)GlcNAc(b1-4)GlcNAc
# In short: as §1
# [37] = molecular target: Fuc(a1-2)[GalNAc(a1-3)]Gal(b1-4)Glc
# In short: as §1
binder,measurement,setting,value
B1,glycan array binding signal (z-score),[1],0.398
same,glycan array binding signal (z-score),[2],-0.147
same,glycan array binding signal (z-score),[3],-0.397
same,glycan array binding signal (z-score),[4],-0.73
same,glycan array binding signal (z-score),[5],0.079
same,glycan array binding signal (z-score),[6],-0.496
same,glycan array binding signal (z-score),[7],4.69
same,glycan array binding signal (z-score),[8],0.452
same,glycan array binding signal (z-score),[9],-0.377
same,glycan array binding signal (z-score),[10],-0.923
same,glycan array binding signal (z-score),[11],2.87
same,glycan array binding signal (z-score),[12],-0.025
same,glycan array binding signal (z-score),[13],-0.631
same,glycan array binding signal (z-score),[14],-0.228
same,glycan array binding signal (z-score),[15],0.313
same,glycan array binding signal (z-score),[16],0.416
same,glycan array binding signal (z-score),[17],0.826
same,glycan array binding signal (z-score),[18],-0.856
same,glycan array binding signal (z-score),[19],-0.719
same,glycan array binding signal (z-score),[20],-0.353
same,glycan array binding signal (z-score),[21],-0.291
same,glycan array binding signal (z-score),[22],-0.166
same,glycan array binding signal (z-score),[23],0.016
same,glycan array binding signal (z-score),[24],-0.367
same,glycan array binding signal (z-score),[25],-0.878
same,glycan array binding signal (z-score),[26],0.045
same,glycan array binding signal (z-score),[27],-0.577
same,glycan array binding signal (z-score),[28],0.424
same,glycan array binding signal (z-score),[29],0.274
same,glycan array binding signal (z-score),[30],-0.879
same,glycan array binding signal (z-score),[31],-0.975
same,glycan array binding signal (z-score),[32],2.15
same,glycan array binding signal (z-score),[33],-0.75
same,glycan array binding signal (z-score),[34],0.237
same,glycan array binding signal (z-score),[35],-0.662
same,glycan array binding signal (z-score),[36],0.772
same,glycan array binding signal (z-score),[37],-0.55

# Some of the entries above in another layout:
binder	measurement	setting	value
B1	glycan array binding signal (z-score)	[23]	0.016
same	glycan array binding signal (z-score)	[24]	-0.367
